From PMC4494903
These are yes or no findings as the source states them, for the method shown. In cells and extracts the contact can be indirect. Some results given as binding are weak or reduced against the parent protein; the word gives no strength.

Sequences of proteins named here, by UniProt entry; tags and fusion partners are left off. A change or cut given only in a name is not applied to a line headed by its entry. Residues count along the entry.
UniProt Q9GZV5: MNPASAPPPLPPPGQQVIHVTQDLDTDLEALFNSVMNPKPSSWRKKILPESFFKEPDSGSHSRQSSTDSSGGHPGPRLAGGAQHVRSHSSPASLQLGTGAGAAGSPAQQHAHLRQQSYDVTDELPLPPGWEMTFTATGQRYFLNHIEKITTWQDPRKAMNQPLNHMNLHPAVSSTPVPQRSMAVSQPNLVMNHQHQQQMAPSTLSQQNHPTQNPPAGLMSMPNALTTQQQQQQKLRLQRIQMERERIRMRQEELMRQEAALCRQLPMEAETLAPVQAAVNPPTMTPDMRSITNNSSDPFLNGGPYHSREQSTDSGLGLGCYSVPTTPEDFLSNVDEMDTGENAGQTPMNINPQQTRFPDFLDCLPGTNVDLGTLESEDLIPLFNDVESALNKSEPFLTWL
UniProt Q16665: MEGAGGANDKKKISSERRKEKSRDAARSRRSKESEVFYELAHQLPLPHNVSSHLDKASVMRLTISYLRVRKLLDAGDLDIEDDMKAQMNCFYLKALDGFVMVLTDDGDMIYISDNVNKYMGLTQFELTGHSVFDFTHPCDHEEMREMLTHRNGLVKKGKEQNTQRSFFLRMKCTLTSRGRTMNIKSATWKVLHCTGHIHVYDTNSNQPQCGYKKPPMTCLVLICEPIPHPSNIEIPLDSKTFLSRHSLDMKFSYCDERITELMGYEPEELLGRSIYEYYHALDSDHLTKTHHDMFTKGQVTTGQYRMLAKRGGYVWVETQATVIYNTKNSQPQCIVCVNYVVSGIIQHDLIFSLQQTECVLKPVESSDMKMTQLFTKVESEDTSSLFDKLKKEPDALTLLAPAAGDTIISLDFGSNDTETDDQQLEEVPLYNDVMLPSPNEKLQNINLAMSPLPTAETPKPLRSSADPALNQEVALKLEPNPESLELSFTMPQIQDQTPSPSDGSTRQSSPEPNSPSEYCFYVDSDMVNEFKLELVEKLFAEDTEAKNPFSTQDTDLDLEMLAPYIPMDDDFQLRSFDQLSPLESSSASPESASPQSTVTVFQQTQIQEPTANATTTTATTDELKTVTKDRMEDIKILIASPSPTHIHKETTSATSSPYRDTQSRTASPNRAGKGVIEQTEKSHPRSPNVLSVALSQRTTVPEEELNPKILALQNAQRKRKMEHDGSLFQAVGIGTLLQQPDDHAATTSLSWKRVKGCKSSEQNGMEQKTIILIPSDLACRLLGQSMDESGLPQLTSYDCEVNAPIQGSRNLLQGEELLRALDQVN
GST-HIF-1α (531-826) fusion protein: residues 531-826 of Q16665

Legend:
[1] = target: transcriptional co-activator with PDZ-binding motif (TAZ) (human (endogenous in MDA-MB-231)) (UniProt Q9GZV5); experiment: co-IP; endogenous proteins; 0.75 mg whole cell lysate (RIPA buffer) of MDA-MB-231 cells exposed to 1% O2 for 4 h, anti-HIF-1α, anti-TAZ or IgG with protein G-Sepharose overnight at 4°C; washed five times; immunoblot for HIF-1α and TAZ
[2] = target: Hypoxia-inducible factor 1α (HIF-1α) (human (endogenous in MDA-MB-231)) (UniProt Q16665); experiment: as above
[3] = target: GST-HIF-1α (531-826) fusion protein (UniProt Q16665); experiment: pull-down; equal molar amounts of GST or GST fusion protein immobilized on glutathione-Sepharose 4B beads, incubated overnight with 2 mg whole cell lysate of MDA-MB-231 cells exposed to 1% O2 for 24 h; washed five times; immunoblot with anti-TAZ and anti-GST; only the target purified

Row | binding [1] | binding [2] | binding [3] | Substance
1 | binds | – | – | Hypoxia-inducible factor 1α (HIF-1α) (from UniProt Q16665 1-826)
2 | – | binds | binds | transcriptional co-activator with PDZ-binding motif (TAZ) (from UniProt Q9GZV5 1-400)
